Experimental data from article PMC10834586.
These are yes or no findings as the source states them, for the method shown. Binding seen in cells or lysates may run through a third protein. Some results given as binding are weak or reduced against the parent protein; the word gives no strength.

The chains behind the UniProt entries cited, without tags or fusion partners. Where a name states a change or a piece, a line headed by the entry shows the natural chain unless it says otherwise. A line that says so, or that is headed by a name, gives the form on record, which may keep a tag or linker. Residues count along the entry.
UniProt Q16665: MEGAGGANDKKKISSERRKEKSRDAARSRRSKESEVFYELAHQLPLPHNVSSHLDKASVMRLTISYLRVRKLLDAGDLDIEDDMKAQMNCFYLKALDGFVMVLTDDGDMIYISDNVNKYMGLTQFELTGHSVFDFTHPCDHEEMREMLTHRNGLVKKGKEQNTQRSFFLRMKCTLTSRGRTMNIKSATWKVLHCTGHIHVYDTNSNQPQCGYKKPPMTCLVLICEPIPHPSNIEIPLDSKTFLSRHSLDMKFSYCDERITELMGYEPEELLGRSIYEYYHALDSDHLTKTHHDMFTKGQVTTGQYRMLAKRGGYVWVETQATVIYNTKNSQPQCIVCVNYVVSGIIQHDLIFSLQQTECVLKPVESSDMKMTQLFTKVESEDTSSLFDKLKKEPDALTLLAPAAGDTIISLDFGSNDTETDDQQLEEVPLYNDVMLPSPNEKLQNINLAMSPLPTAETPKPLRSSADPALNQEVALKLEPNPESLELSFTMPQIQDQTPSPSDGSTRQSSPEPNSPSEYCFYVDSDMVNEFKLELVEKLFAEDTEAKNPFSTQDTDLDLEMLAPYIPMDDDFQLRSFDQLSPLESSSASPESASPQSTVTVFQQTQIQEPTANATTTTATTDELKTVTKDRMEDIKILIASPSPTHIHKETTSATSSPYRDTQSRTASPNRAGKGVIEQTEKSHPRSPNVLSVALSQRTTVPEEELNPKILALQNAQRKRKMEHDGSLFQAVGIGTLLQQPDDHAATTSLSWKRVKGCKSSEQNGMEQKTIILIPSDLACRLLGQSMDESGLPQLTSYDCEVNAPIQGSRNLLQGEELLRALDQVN
GFP-HIF-1α S641/643A (Q16665, form named): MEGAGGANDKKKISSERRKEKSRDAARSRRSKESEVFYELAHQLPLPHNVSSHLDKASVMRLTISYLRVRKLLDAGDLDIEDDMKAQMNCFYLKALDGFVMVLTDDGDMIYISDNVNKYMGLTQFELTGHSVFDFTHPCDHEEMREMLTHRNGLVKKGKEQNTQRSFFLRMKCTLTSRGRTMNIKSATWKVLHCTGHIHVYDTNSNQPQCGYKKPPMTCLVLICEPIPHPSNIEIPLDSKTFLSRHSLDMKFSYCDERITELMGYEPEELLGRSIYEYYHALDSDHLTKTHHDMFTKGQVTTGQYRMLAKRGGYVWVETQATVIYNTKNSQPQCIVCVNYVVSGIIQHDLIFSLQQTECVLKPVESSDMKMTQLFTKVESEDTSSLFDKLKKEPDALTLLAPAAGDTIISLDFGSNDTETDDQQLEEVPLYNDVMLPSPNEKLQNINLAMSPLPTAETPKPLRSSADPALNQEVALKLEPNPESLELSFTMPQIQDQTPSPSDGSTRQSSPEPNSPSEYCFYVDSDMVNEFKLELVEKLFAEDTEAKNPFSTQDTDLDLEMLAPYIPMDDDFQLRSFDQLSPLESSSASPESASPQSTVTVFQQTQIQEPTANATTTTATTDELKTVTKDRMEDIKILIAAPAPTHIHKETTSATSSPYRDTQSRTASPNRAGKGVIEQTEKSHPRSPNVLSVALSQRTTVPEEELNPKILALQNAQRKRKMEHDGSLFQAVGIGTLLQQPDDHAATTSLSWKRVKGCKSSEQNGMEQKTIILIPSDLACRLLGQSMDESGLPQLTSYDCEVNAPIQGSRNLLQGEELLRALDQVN
GFP-HIF-1α SD-SA (Q16665, form named): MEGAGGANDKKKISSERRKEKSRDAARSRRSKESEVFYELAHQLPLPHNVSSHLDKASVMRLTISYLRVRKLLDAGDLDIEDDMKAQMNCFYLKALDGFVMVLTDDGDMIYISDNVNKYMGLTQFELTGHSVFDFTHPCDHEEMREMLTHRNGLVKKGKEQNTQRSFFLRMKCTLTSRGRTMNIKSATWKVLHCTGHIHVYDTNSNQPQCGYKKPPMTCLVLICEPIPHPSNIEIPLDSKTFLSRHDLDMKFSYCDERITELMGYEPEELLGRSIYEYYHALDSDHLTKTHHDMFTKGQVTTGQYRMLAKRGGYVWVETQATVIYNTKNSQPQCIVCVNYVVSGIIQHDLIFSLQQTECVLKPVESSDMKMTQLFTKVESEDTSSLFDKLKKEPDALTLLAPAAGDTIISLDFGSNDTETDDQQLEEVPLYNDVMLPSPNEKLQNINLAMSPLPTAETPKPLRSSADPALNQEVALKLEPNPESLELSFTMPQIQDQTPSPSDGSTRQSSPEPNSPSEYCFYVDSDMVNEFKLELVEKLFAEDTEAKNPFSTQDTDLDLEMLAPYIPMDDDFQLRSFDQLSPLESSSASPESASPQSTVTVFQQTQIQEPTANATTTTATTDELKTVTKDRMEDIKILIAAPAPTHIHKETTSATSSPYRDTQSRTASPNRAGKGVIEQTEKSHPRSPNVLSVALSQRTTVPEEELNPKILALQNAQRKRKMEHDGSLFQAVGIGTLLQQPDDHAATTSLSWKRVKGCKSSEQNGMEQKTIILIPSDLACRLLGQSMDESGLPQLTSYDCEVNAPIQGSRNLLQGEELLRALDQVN
UniProt P38646, residues 47-679: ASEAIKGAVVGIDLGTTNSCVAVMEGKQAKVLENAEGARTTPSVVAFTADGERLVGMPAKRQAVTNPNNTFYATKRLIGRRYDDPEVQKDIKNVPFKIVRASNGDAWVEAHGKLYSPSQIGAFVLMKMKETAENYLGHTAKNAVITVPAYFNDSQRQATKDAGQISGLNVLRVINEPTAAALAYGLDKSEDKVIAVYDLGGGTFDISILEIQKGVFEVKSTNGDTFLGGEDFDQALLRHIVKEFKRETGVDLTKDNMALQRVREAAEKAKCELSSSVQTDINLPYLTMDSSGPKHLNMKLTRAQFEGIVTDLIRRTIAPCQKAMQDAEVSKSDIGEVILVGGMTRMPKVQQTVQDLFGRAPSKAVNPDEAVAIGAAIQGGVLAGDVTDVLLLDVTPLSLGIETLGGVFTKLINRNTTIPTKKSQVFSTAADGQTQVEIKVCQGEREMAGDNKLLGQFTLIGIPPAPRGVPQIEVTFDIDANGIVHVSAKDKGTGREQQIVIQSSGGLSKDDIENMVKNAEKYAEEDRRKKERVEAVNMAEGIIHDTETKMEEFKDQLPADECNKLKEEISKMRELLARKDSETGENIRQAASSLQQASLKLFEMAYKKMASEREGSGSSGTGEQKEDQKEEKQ

How the values were obtained:
GFP-HIF-1α S641/643A = GFP-HIF-1α S641/643A (UniProt Q16665); experiment: co-IP; anti-GFP immunoprecipitation from lysates of transfected HeLa HIF1A−/− cells grown under hypoxia (1% O2); HNMT buffer, 16 h at 4 °C; immunoblot
GFP-HIF-1α SD-SA = GFP-HIF-1α SD-SA (UniProt Q16665); experiment: as above

For mortalin (from UniProt P38646 47-679), the binding (GFP-HIF-1α S641/643A) was “binds” and the binding (GFP-HIF-1α SD-SA) was “binds”.
